No constants are given. Whether binding was seen depends on the method and setting. In cells and extracts the contact can be indirect. Binding calls can cover weak binding; strength is not graded here.
Target: TFIP11-FLAG deletion mutant lacking the G-patch domain only (human) (UniProt Q9UBB9)
Assay: co-IP; HeLa cells co-transfected with RFP-coilin and TFIP11-FLAG constructs; IP with anti-FLAG antibodies, western blotting

By UniProt entry, the sequences of proteins in these tests, tags left out. Where a name states a change or a piece, a line headed by the entry shows the natural chain unless it says otherwise.
UniProt Q9UBB9: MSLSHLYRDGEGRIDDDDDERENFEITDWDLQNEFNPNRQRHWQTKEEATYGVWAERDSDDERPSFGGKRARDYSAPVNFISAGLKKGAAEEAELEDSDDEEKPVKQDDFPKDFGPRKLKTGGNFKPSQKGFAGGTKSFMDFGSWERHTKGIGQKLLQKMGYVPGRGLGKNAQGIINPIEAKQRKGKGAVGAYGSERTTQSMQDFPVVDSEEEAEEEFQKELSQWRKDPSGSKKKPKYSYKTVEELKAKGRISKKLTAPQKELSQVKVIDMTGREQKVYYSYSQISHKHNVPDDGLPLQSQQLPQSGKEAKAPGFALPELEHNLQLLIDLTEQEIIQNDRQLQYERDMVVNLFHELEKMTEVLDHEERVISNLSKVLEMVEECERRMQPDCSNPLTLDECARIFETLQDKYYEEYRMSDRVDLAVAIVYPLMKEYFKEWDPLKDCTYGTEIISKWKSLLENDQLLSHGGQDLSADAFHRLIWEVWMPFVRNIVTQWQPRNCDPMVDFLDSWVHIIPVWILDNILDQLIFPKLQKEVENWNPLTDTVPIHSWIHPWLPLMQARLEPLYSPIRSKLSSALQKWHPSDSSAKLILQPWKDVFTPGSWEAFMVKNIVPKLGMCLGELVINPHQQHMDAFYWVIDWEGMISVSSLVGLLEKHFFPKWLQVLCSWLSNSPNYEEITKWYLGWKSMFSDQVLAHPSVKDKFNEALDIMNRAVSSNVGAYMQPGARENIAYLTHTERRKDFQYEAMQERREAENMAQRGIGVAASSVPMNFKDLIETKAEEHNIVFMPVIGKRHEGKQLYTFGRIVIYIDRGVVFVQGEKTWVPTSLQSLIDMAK
UniProt P38432: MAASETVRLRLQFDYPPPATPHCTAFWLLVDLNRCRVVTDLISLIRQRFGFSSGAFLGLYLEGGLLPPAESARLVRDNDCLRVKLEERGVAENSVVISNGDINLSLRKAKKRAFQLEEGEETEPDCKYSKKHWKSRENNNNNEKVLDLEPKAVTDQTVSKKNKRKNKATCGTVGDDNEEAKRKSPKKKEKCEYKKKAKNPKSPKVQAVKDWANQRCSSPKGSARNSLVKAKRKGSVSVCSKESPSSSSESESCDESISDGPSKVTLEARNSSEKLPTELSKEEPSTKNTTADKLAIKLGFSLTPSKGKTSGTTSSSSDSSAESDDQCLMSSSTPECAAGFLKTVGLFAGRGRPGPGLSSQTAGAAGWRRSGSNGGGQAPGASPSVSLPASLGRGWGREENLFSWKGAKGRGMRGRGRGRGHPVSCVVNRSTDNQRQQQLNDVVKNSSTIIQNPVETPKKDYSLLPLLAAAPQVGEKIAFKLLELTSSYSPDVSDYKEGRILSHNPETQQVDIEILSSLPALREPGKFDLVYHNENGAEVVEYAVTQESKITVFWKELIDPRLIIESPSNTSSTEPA

In the case of RFP-coilin (from UniProt P38432 1-576), the binding is reported as “binds”.

Reference: publication PMC8599867
